# Test results published in the supplement of paper PMC8728848.
# The other results are listed elsewhere or left out.
# B1: Epa8 (Candida glabrata) (protein)
# chain: MGSSHHHHHHSSGLVPRGSHMASSRALSDYPLGCSPLLGTKLTPGLSMELYEYPLDNHGIGPHCWDPAYLNPEYPRTGFESHKLIGTAQNVMSLNFEHRTQDCHVEFSNLPASFNFPDQITLTNFTMLLYGYFKPKESGRYRFHMEADDLLLMNLGAGNAFDCCAHEATRNNLGDYIAYDIWAGTRKDVEVFLEKEVFYPLRLFFNNRDGRAALDFSYYLNGATEPGTDIPELLFSLPDGESCPAYI
# Columns and labels:
# Test in all cases: glycan array binding signal (z-score within array); higher = stronger binding
# Settings in all cases: glycan notation: IUPAC condensed, linker removed
# [1] = molecular target: Neu5Gc(a2-8)Neu5Gc(a2-3)Gal(b1-4)GlcNAc(b1-3)Gal(b1-4)GlcNAc
# Outline: (§1)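 Arrays were curated from the Consortium for Functional Glycomics database, 3228 in total, and kept only where the protein sequence was available. Binding is expressed as a within-array Z-score. This score was averaged across arrays of the same protein sequence at different concentrations or buffers and across linkers, and negative values can be read as non-binding.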
# [2] = molecular target: Neu5Gc(a2-8)Neu5Gc(a2-6)Gal(b1-4)GlcNAc
# Outline: as §1
# [3] = molecular target: Neu5Gc(b2-6)Gal(b1-4)GlcNAc
# Outline: as §1
binder,measurement,setting,value
B1,glycan array binding signal (z-score),[1],-0.607
same,glycan array binding signal (z-score),[2],-0.62
same,glycan array binding signal (z-score),[3],-0.258
